{"sequences": {"note": "Sequences of proteins named here, by UniProt entry; tags and fusion partners are left off. A change or cut given only in a name is not applied to a line headed by its entry.", "UniProt O00429": "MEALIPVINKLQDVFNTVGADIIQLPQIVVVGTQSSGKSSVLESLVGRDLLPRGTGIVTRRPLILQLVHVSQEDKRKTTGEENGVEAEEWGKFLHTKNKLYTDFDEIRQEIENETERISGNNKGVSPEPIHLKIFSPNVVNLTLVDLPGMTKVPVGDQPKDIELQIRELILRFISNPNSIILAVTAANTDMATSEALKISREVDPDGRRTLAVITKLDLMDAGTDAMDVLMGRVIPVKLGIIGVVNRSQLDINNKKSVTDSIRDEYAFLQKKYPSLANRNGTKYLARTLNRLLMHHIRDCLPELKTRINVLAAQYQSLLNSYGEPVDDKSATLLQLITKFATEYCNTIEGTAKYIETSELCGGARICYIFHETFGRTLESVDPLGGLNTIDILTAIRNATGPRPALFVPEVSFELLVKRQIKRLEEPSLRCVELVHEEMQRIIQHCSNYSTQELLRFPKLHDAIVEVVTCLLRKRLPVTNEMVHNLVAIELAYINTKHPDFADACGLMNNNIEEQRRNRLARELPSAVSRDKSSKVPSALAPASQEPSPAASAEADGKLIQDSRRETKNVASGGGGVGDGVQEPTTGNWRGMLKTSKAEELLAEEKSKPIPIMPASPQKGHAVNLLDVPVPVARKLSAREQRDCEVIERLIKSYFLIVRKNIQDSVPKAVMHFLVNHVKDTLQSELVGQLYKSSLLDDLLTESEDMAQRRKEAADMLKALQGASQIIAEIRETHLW", "UniProt P28062": "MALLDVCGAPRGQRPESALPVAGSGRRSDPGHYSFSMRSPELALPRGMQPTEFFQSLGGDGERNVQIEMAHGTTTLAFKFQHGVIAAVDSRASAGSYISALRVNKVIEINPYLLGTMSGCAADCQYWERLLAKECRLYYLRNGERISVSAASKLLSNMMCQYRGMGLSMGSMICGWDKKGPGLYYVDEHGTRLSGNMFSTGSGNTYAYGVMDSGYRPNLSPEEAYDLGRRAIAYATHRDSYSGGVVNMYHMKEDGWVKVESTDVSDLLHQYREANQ", "UniProt O35303": "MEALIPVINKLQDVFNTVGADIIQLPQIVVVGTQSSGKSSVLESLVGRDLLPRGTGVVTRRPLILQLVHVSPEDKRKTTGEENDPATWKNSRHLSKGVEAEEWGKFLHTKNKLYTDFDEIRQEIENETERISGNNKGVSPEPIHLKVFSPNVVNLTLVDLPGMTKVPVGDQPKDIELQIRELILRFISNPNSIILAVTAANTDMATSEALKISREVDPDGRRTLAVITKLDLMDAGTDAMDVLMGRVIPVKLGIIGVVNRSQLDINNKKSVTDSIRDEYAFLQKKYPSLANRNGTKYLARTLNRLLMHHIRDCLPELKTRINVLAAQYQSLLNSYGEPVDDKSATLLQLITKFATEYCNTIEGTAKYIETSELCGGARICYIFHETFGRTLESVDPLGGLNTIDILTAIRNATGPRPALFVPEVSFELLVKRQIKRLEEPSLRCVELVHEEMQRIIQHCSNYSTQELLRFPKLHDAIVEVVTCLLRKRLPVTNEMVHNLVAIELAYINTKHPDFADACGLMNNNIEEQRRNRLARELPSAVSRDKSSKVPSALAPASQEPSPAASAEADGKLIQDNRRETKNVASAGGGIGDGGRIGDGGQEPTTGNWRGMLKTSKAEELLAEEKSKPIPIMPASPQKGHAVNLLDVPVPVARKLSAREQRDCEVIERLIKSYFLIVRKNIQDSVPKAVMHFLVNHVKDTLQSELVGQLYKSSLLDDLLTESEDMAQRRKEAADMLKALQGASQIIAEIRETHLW", "UniProt P28063": "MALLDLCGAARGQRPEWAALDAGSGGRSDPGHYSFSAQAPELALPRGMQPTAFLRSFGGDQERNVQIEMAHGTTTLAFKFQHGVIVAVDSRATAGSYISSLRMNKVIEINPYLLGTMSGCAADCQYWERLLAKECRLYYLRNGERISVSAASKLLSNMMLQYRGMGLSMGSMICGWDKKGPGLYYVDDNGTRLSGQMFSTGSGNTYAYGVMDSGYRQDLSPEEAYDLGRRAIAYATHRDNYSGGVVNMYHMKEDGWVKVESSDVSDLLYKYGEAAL", "UniProt P28064": "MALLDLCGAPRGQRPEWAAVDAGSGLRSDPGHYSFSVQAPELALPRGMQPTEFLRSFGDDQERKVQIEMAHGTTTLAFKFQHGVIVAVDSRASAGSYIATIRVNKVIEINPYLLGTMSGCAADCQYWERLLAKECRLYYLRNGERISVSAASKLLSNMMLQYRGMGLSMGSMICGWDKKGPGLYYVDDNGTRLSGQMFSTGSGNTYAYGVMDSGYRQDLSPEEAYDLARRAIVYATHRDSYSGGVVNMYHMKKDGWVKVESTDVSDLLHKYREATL", "UniProt Q8K1M6": "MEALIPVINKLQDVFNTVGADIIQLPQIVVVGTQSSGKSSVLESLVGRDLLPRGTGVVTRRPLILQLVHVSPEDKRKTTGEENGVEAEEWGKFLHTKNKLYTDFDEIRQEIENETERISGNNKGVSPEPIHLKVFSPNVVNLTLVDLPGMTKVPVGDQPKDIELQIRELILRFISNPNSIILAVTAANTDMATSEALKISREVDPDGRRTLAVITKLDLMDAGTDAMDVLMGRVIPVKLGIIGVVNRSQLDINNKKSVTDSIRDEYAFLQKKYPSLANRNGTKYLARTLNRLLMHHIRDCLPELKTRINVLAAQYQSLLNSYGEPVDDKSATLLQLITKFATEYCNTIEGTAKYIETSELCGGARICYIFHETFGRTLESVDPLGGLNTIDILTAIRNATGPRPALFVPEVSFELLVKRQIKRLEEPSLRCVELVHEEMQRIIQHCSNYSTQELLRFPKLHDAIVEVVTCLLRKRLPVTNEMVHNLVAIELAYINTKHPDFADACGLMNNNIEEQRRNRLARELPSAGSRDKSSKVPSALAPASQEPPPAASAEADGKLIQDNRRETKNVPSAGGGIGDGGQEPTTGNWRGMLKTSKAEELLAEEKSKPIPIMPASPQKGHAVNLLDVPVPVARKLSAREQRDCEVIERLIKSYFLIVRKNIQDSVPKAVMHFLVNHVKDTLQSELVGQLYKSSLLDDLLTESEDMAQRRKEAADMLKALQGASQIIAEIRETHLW"}, "source": "paper PMC11549449", "key": {"[1]": {"biological_target": "Myc-tagged full-length Drp1 (UniProt O00429)", "test": "co-IP; HEK293 cells co-transfected with Flag-Psmb8 (or Flag-GFP-tagged Psmb8 mutants) and Myc-Drp1; IP with anti-Myc; blot with anti-Flag or anti-Myc"}, "[2]": {"biological_target": "Flag-tagged full-length Psmb8 (UniProt P28062)", "test": "co-IP; HEK293 cells co-transfected with Flag-Psmb8 and Myc-Drp1 (full length or deletion mutants); IP with anti-Flag; blot with anti-Myc or anti-Flag"}, "[3]": {"biological_target": "dynamin-related protein 1 (Drp1), endogenous in neonatal rat cardiomyocytes (rat (endogenous in NRCMs)) (UniProt O35303)", "test": "co-IP; NRCM lysates, with or without MG132 (20 µM), under control or H/R condition; IP with anti-Drp1 antibody or IgG control; blot with anti-Drp1 and anti-Psmb8"}, "[4]": {"biological_target": "Psmb8 (immunoproteasome catalytic subunit β5i), endogenous in mouse heart (mouse (endogenous in heart tissue)) (UniProt P28063)", "test": "co-IP; mouse heart tissue lysates; IP with anti-Psmb8 antibody or IgG control; blot with anti-Drp1 and anti-Psmb8; lysis buffer 20 mM Tris-HCl pH 7.5, 150 mM NaCl, 0.1% SDS, 1% NP-40; 4 °C overnight"}}, "note": "These are yes or no findings as the source states them, for the method shown. Binding seen in cells or lysates may run through a third protein. Binding calls can cover weak binding; strength is not graded here.", "data": [{"substance": "Flag-tagged full-length Psmb8 (from UniProt P28062)", "values": [{"measurement": "binding", "setting": "[1]", "result": "binds"}]}, {"substance": "Myc-tagged full-length Drp1 (from UniProt O00429 1-736)", "values": [{"measurement": "binding", "setting": "[2]", "result": "binds"}]}, {"substance": "Psmb8 (immunoproteasome catalytic subunit β5i), endogenous in neonatal rat cardiomyocytes (from UniProt P28064)", "values": [{"measurement": "binding", "setting": "[3]", "result": "binds"}]}, {"substance": "dynamin-related protein 1 (Drp1), endogenous in mouse heart (from UniProt Q8K1M6 1-736)", "values": [{"measurement": "binding", "setting": "[4]", "result": "binds"}]}]}
